The text below walks through data of publication PMC10904755.

Sequences of proteins named here, by UniProt entry; tags and fusion partners are left off.
UniProt O60260: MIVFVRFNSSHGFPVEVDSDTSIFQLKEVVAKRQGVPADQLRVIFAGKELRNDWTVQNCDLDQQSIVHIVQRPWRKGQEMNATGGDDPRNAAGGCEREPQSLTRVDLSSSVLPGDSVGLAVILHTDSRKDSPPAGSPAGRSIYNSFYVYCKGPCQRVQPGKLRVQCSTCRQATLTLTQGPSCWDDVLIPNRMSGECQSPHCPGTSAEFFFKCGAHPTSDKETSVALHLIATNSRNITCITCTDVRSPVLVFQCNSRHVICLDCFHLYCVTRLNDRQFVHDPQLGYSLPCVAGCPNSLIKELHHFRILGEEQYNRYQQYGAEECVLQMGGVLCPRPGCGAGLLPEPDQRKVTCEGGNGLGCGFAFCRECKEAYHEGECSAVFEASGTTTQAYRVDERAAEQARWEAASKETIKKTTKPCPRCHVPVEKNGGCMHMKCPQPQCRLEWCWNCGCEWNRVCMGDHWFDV
UniProt Q70CQ3: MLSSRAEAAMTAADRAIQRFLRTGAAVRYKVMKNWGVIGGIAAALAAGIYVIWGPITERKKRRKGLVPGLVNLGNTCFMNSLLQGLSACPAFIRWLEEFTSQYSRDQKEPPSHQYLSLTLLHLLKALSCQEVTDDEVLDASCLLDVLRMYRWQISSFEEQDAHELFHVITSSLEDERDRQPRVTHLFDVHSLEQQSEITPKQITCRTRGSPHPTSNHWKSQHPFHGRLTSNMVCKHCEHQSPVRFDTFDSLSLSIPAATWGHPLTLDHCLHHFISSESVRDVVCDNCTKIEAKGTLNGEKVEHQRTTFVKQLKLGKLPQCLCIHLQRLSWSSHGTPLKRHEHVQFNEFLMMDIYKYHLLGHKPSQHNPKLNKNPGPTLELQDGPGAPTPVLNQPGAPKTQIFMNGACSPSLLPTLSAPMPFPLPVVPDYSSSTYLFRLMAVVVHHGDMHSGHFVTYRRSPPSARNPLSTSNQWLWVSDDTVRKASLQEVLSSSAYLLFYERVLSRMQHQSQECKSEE

Assay [1] has as its target T1, endogenous Catalase (human (endogenous in T24, 5637, UM-UC-3)) (UniProt P04040).
T1 sequence: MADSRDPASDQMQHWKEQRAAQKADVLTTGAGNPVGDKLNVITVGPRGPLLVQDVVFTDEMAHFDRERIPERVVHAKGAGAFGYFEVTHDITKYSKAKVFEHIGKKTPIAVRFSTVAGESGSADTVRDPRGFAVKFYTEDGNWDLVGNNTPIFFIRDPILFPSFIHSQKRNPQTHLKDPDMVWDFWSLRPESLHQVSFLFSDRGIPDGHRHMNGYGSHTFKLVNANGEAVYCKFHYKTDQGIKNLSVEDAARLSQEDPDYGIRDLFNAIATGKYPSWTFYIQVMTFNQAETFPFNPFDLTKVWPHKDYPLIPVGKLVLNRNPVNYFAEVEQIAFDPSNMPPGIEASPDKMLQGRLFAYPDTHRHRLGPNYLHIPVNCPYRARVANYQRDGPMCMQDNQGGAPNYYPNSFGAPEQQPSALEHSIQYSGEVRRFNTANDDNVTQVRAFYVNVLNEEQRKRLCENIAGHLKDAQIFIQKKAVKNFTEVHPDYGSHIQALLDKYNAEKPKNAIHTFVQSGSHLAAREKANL
The experiment in a line: co-IP; 'endogenous' co-IP in T24, 5637 and UM-UC-3 cells stably expressing Parkin; mild lysis buffer, supernatant with 1 μg of antibody for 16 h, then protein A/G magnetic beads for 2 h; immunoblot.

The next assay has as its target T2, GFP-Catalase (UniProt P04040).
T2 sequence: T1 sequence
The assay can be described thus: co-IP; 293T cells transfected with the tagged plasmids; mild lysis buffer, supernatant with 1 μg of antibody for 16 h, then protein A/G magnetic beads for 2 h; immunoblot. On the technique in general: A western blot detects proteins with antibodies after separation by electrophoresis.

The target in another assay is Flag-Parkin (UniProt O60260). The assay is described as above.
For assay [2], the target named is Parkin stably expressed in BLCA cells (UniProt O60260). The assay can be described thus: co-IP; 'endogenous' co-IP in T24, 5637 and UM-UC-3 cells stably expressing Parkin; mild lysis buffer, supernatant with 1 μg of antibody for 16 h, then protein A/G magnetic beads for 2 h; immunoblot.

Results are given in words; binding and its absence hold for the method and conditions named. In cells and extracts the contact can be indirect. Some results given as binding are weak or reduced against the parent protein; the word gives no strength. For some assays here: Sequences can lack the tags named with a protein.

“Parkin stably expressed in BLCA cells (from UniProt O60260 1-465) (enzyme)”: the binding result in assay [1] is listed as “binds”.
With “Myc-USP30 (from UniProt Q70CQ3 1-517) (enzyme)”, the binding result with GFP-Catalase and with Flag-Parkin was “binds” each time.
With “USP30 in BLCA cells (from UniProt Q70CQ3 1-517) (enzyme)”, the binding entry in assay [2] is on record as “binds”.
“Flag-Parkin (from UniProt O60260 1-465) (enzyme)”: the binding entry with GFP-Catalase is on record as “binds”.
